Assay results taken from PubChem BioAssay AID1347423 (Functional Genomics Laboratory (NCATS/FGL), 2020).
In all, about 52,000 sequences went through this assay and about 210 (0.4%) were called active.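 Rule for the calls: active = gene whose silencing raises cell survival under the drug, median off-target-corrected z-score across its silencing RNAs 2 or more; inactive = the rest.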 The list shows a part of the results.

Assay: Resistance to Poly (ADP-Ribose) Polymerase inhibitor: Gene Identification via Genome-wide siRNA Screen
Conditions: mouse BRCA2 R2336H ES cells, olaparib, CellTiter-Glo viability; hits give high values
Summary of the method: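 Mouse BRCA2 R2336H ES cells were reverse-transfected with siRNA (20 nM final), treated at 48 h with 500 nM olaparib, and read by CellTiter-Glo after 72 h. Scores: MAD-based z per siRNA, median per gene, seed off-target correction.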

Sequence | z-score
GGACACCUACUUGGUAUUGTT against Epor | inactive: -1.48
GCGCGUGUGAAAUAAACAUTT against 9130011E15Rik | inactive: 1.45
CCAAGAUCUCAGUUGUCUCTT against Mtif2 | inactive: -0.502
GGCCGACCUUUCUAUCAAUTT against Rasip1 | inactive: 0.915
CGAACUGGUAGAAGUUAUUTT against Galnact2 | inactive: 0.79
CCUUAAGCACCAUAAAUUATT against 2510003E04Rik | inactive: 0.622
CGAAUACGAAAAAAUCGACTT against 1500006O09Rik | inactive: -0.342
GGAAAACAGAAAUGGUUUATT against Slc39a10 | inactive: 0.58
GGUGUACAACUCCUAUAGGTT against P2ry13 | inactive: 1.28
GCUAGACGGGUGUUUAAGATT against Tiam2 | inactive: -2.14
GCUCUUUCCCGACAUUCCCTT against Nans | inactive: -0.348
GGCCAGUGAGCAGCAUUAUTT against 6330509G02Rik | inactive: 0.489
GGAGAUUGUGCCAUCCAUGTT against Ccnd1 | inactive: 0.609
GGCUACAUAGGAUCCACAATT against Prm2 | inactive: 0.459
GGAGCUGAGGGAACCUUGUTT against Slc35c1 | inactive: -1.21
CCCAAAAGAUCACAAAGUUTT against E330017E16 | inactive: -0.911
GGCUUCUGUGGCAGAUAAGTT against Pspn | inactive: 0.413
CGGGAAAUCAUAAAACAGGTT against Chd4 | inactive: -0.81
GGUACAUGAAGAAAAGUAATT against 9130022A01Rik | inactive: 1.36
GGAUUAUGUGUCGUUUGGATT against 4732437J24Rik | inactive: 0.0477
UAGAAGAUGCAACCUUGCUTT against Adam34 | inactive: -0.354
GGUUCUUUAAUAGAACAUGTT against Tyrp1 | inactive: -0.207
GCACUACACUGAUUUGCUATT against Actr1b | inactive: -1.11
UCAACAGGGCUGAUAUCCCTT against Acsl5 | inactive: -0.897
GCAUCACUGGAUUGUGGAUTT against Tm9sf2 | inactive: -1.19
CCUUGAGCAUAUCUUCUGUTT against Olfr420 | inactive: 0.367

Taken from above:
For z-score, GGUACAUGAAGAAAAGUAATT against 9130022A01Rik has inactive: 1.36
For z-score, GGAGAUUGUGCCAUCCAUGTT against Ccnd1 has inactive: 0.609
For z-score, GGCCGACCUUUCUAUCAAUTT against Rasip1 has inactive: 0.915
For z-score, CGAAUACGAAAAAAUCGACTT against 1500006O09Rik has inactive: -0.342
For z-score, CCUUGAGCAUAUCUUCUGUTT against Olfr420 has inactive: 0.367
For z-score, GCUCUUUCCCGACAUUCCCTT against Nans has inactive: -0.348
For z-score, UAGAAGAUGCAACCUUGCUTT against Adam34 has inactive: -0.354

Additional results:

Sequence | z-score
CGACAUGAGCAACGUAGUCTT against 4933434G05Rik | inactive: -0.327
GCAACAAGACUCGCAUCAUTT against Cbln4 | inactive: 2.24
GGCAGAAAAACUGUGCAACTT against E430025E21Rik | inactive: 0.764
GGCCAUCAUGAUUGGCGAUTT against 2310007H09Rik | inactive: 0.969
GGACUAUGCUGUCCAGAUCTT against Ntn1 | inactive: -0.555
GGUCUUCGGUUUUUUAUACTT against Olfr908 | inactive: -0.417
GGUUGACAAUUUUCUCAAGTT against Prl | inactive: 0.758
GGAGUGGCUAUGUUUUCGATT against Hrg | inactive: 0.883
GGAAUUAACGUGUUUCUGUTT against Ifrg15 | inactive: 0.702
GCUCGGUCUUCAUCCCAAATT against BC016548 | inactive: -0.525
GGAGACUACAAAGGAGAGCTT against Igfbp6 | inactive: 1.5
GGAAAGGACUAAGUCAGGATT against Mdk | inactive: 1.35
GCCCAAACUCAUUGAGUUUTT against Cab39l | inactive: -0.304
GGAGGAGACAGGCUAUUACTT against Usp25 | inactive: -1.59
CGUGUUAGGUCUUCCUCCUTT against 1700113I22Rik | inactive: -1.95
CGAUAAGGAAGAGCGGAUCTT against Epn1 | inactive: 0.185
GGAACAAGAAGAAGAAAAATT against Slco3a1 | inactive: 2.2
GGUCGAGUUCACGGACUCUTT against Pitx2 | inactive: -1.8
GGGAAAAUGGAAAAUACAUTT against 0610039A15Rik | inactive: -0.849
GGCUACUGUUGCUGCAUUUTT against Lin7c | inactive: -1.24
GGAAACAAAUGAGUGCCUGTT against Muted | inactive: -1
GCAAGUGACGGUUUAUCUGTT against 5830482G23Rik | inactive: 1.07
CCUUAUCCAAGAGUAGGGCTT against AY534250 | inactive: 1.03
GGAGUAAAUAAGGACAUUGTT against Pcdha3 | inactive: -0.208
GCGGAGGUCACGUUUACAUTT against Crebbp | inactive: 2.13
GCGAUACCAGGGACUACAUTT against AI839920 | inactive: -0.789

Sequence | z-score
GGCAGUGAAUCUCAAAUCCTT against Jam3 | inactive: -0.246
GGCGAUUCUGGCUCUCUUUTT against Commd9 | inactive: -1.31
GGCCUGCCUUUUUAUCUUGTT against Rrs1 | inactive: -0.129
GGAAGAAGGUACAUUUCAGTT against 4933417L02Rik | inactive: -1.29
GGAUAUGGAGAGAGAUUUATT against 1700102P08Rik | inactive: -0.0905
CGAGGAAUAGAUUUUUUGATT against Twistnb | inactive: -2.66
GGUUCAAAACUACACACACTT against Sp9 | inactive: -2.32
GGCAGUGAUGUUUCUCUCGTT against 1110012D08Rik | inactive: -0.786
GAGAGUAAAGAGCCGUUCUTT against Ly6i | inactive: 2.11
GGAGGAUGACAAAAUCUAUTT against 2310020H19Rik | inactive: 0.284
GGAAGUUCUAGAAAGGUUGTT against Tapbp | inactive: 2.01
GGGAAAUCUCUGUUGGACATT against Akr1c13 | inactive: -0.333
GGCAAACCUUCUCUAAUUUTT against Nif3l1 | inactive: -1.25
GCUCUGGUGAAUCCAUUGATT against Mid2 | inactive: -1.88
CGACUGUGGAAGGUUUGGUTT against 1700021K19Rik | inactive: 1.61
GCAAAUUGUCAACAUACUUTT against Slc3a2 | inactive: -0.852
CCCUGUCUUUCCUAGGCCATT against BC025519 | inactive: -0.142
GCCCUUAUUUACUAACAUCTT against 1500015L24Rik | inactive: 1.35
CCCAAUUAGGCUAUGCUAATT against Amfr | inactive: 0.594
GGUCAACCUUGAACUAAUATT against AW494914 | inactive: 0.231
GUUCCUGCUGAUCAAGGACTT against Ndnl2 | inactive: -1.51
GCAAAAGUAAGGAGUCUAUTT against Clcn4-2 | inactive: -2.95
CGUCAAUAAUCUAUAUAGCTT against Blm | inactive: 2.09
GGCACAGAACAUUUAAUUGTT against Mefv | inactive: -0.522
GGUGAUAAAAGAUUAGAAGTT against Nckipsd | inactive: 0.47
GCUUAUAAAAGACUUACUGTT against Sec24b | inactive: -0.327

Sequence | z-score
GGCACCUUAAUGCUGACUUTT against Sdc4 | inactive: -0.606
GGUUUAUGAGGAAAAGAAGTT against Svs6 | inactive: 0.206
GGCAUAUAGAAACUGGUAATT against Npy6r | inactive: 0.0679
CCAAGGCCAUCUCAUUUUCTT against Olfr749 | inactive: 0.227
GGAAUGAAUUCAGAGCAUGTT against Mtap6 | inactive: 0.274
GAUUCAGCCAUGUGGAACATT against Gm1313 | inactive: -0.324
CGAAAGCUUCCGAAUCUUCTT against Rshl1 | inactive: -0.318
GGAACAUGGACACCACACUTT against 2010013E08Rik | inactive: -1.95
GGAUUACCUAAAUUUAGGATT against A330009G12Rik | inactive: 0.148
CGAAAAUCAAGGGAGCUCATT against Rnf19 | inactive: -0.128
GGGUGAGAGAUCCCAAGUUTT against 4931420D14Rik | inactive: -2.98
GGAGCAAAGCUAAAUGUUGTT against 3732409C05Rik | inactive: 0.699
CCGGAUUGCACAUCAUCGATT against 4930413P14Rik | inactive: -1.29
GGAAGGAUUGGGUUAUAGATT against Bat4 | inactive: -0.305
GAAAUGGAACGGUGCCACATT against Defb9 | inactive: 0.843
GGCUCAAGCGAAAAGCAGATT against Serping1 | inactive: -0.778
GGAUGAAGAGGAUUCAUUGTT against Pde4a | inactive: 0.4
GCAGAACAUCCGUUCUCAGTT against 1110061L23Rik | inactive: 1.49
GACAAUGCAAACUUUUGGGTT against V1re7 | inactive: 0.404
GGAGGUAAAGCUAAGUAAATT against Gtf3c2 | inactive: -0.641
GGAGUAGUAGCUAUUAUAUTT against Kctd9 | inactive: 0.823
GGUUCUGGCUCACAUUCACTT against H2-M3 | inactive: -1.08
CGCGUGAAAGGUUUGAGAGTT against Cd24a | inactive: 0.0936
GUUUGUCUAGCUUCAGAUGTT against Rims4 | inactive: -0.258
GGUGCAUGAUUUCAGAAUATT against E430018M08Rik | inactive: 0.847
GGUCUCAAGUUUUACAUUCTT against Prss35 | inactive: 0.751
